Sequences and labels used below:
T1: mouse IL12 receptor subunit beta-1 (mIL12Rb1) (mouse) (UniProt Q60837)
T1 sequence: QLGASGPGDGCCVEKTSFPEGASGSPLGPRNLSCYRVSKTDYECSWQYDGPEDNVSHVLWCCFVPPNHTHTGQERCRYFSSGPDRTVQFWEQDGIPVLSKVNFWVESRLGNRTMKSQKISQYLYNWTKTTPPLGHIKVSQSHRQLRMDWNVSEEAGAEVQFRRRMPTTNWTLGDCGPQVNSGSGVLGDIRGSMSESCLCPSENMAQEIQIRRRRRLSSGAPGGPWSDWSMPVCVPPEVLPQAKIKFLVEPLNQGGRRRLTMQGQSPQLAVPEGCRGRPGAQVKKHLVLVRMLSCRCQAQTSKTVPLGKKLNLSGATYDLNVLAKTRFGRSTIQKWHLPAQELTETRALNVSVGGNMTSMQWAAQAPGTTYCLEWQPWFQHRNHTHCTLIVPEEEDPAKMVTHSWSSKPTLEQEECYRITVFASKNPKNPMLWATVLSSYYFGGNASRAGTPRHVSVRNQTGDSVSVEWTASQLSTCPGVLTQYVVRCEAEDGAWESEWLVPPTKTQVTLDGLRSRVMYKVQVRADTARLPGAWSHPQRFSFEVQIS

The chains behind the UniProt entries cited, without tags or fusion partners. Where a name states a change or a piece, a line headed by the entry shows the natural chain unless it says otherwise.
UniProt P97378: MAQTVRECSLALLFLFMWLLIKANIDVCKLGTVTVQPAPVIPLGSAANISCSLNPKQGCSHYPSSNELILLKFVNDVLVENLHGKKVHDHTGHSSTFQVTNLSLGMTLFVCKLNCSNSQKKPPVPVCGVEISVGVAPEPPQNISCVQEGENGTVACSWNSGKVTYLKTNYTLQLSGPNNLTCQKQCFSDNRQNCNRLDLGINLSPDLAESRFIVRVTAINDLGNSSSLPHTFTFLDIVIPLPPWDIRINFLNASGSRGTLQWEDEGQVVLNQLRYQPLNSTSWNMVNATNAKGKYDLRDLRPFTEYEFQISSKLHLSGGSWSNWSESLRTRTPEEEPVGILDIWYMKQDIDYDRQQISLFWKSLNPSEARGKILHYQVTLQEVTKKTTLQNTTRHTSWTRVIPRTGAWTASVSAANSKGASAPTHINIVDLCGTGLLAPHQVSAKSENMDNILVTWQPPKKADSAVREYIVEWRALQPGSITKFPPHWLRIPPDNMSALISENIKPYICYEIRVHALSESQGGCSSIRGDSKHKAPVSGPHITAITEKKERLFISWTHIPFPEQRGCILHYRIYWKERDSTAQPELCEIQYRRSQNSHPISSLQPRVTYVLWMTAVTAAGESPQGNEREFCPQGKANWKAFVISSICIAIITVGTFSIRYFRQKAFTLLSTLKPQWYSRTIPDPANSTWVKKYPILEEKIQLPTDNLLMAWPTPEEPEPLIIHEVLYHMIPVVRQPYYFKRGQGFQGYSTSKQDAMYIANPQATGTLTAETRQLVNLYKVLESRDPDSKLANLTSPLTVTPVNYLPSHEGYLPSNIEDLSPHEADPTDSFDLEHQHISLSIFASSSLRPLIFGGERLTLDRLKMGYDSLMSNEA

B1: DR284 (mIL12Rb1_VHH2) (VHH)
VHH: QVQLQESGGGSVQAGGSLRLSCAVSGYDYCGYDVRWYRQAPGKEREFVSGIDSDGSTSYADSVKGRFTISQDNAENTSYLHMFSLKPEDTAMYYCKTESPAGESAWCRNFRGMDYWGKGTQVTVSS
B2: DR289 (mIL12Rb1_VHH7) (VHH)
VHH: B1 VHH with Q39R
B3: DR285 (mIL12Rb1_VHH3) (VHH)
VHH: QVQLQESGGGSVQAGGSLRLSCVASGYSYCGYDMMWYRQAPGKEREFVALITSDYSIRYEDSVEGRFSISRDNAKNTGYLLMSNLTPADTAIYYCKTSTAARESSWCRSRYRVASWGQGTQVTVSS
B4: DR286 (mIL12Rb1_VHH4) (VHH)
VHH: QVQLQESGGGSVQAGGSLRLSCAASRYTYTNNFMAWFRQAPGKEREGVAAIYTGDGYAYYFDSVKGRFTISQDNDKNMLYLQMNSLKPEDTAMYYCAAMERRSGRRRMTENAEYKYWGQGTQVTVSS
B5: DR287 (mIL12Rb1_VHH5) (VHH)
VHH: QVQLQESGGGSVQAGETLRLSCTVSGFTIDDSEMGWYRQAPGHECELVASGSSDDDTYYVDSVKGRFTISLDNAKNMVYLQMNSLKPEDTAVYYCATGPTYPPKDGDCAHWGQGTQVTVSS
B6: DR283 (mIL12Rb1_VHH1) (VHH)
VHH: QVQLQESGGGSVQAGGSLRLSCTASGYTYSSAFMAWFRQAPGKEREGVAAIYTRDGGTVYADSVKGRFTISQDNAKNTLYLQMNSLKAEDTAMYYCAAKIPQPGRASLLDSQTYDYWGQGTQVTVSS
B7: DR288 (mIL12Rb1_VHH6) (VHH)
VHH: B6 VHH with G57S, T58P, V64L, Y80H, A88P, Q102E, A106I, Q119H
B8: DR303 (mIL12Rb2_VHH1) (VHH)
VHH: QVQLQESGGGSVQAGGSLRLSCAASGYTYSNRHMGWFRQAPGKEREGVAAIYTGGGSTYYADSVKDRFTISQDNAKNTLYLQMNSLTPEDTAMYYCAADLTRWYSGGWRDPRGYKYWGQGTQVTVS
B9: DR307 (mIL12Rb2_VHH5) (VHH)
VHH: QVQLQESGGGSVQAGGSLRLSCAASGITYRGVWMGWFRQAPGKEREGVATIYTGSGHTYYADSVKGRFTISQDNAKNTVYLQMNSLKPEDTAMYYCAARTVGGTFYTLAADSFNTWGQGTQVTVSS
B10: DR304 (mIL12Rb2_VHH2) (VHH)
VHH: QVQLQESGGGSVQAGGSLRLSCAASGVTYGSYYMAAWFRQAPGKEREGVASIYGGSDSTYYADSVLGRFTISQDNGKNTLYLQMNSLKPDDTAMYYCAAAPPGKWFLKRLEGHNYSYWGQGTQVTVSS
B11: DR306 (mIL12Rb2_VHH4) (VHH)
VHH: QVQLQESGGGSVQVGGSLRLSCAVSGKLYGGAWFRQAQGKGREGVAAIWIGTGTTFYADSVKGRFTISRDNAKNTVYLQMDGLKPEDTALYYCAADDRPGYRDPLAPVSYNHWGQGTQVTVSS

Numbering of substitutions follows the chain as printed. Results are given in words; binding and its absence hold for the method and conditions named. Some entries that bind do so weakly or less than the wild type.

The target of one assay is T1, mouse IL12 receptor subunit beta-1 (mIL12Rb1) (mouse). In words: ELISA, antigen-coated plate, anti-VHH-HRP detection (FIG. 5). On the technique in general: In an ELISA, binding on a coated surface is turned into a signal by an enzyme label.
For the molecule B1, the binding result is “binds”. Still for that read-out and setting: for B2 the value was “binds”; for B3, “binds”; for B4, “binds”. Take B5: the binding entry is reported as “binds”. Consider B6, for which the binding entry is “binds”. Regarding B7, the binding result was “binds”.

The next assay addresses extracellular domain of mIL12Rb2 (mouse) (UniProt P97378). Kind of assay: ELISA, antigen-coated plate, anti-VHH-HRP detection (FIG. 6).
As to B8, the binding entry is given as “binds”. Turning to B9, the binding entry was “binds”. Consider B10, for which the binding entry was “binds”. Take B11: the binding result was “binds”.
